Results as given in patent publication US11827543B2, “Method for continuous supply of superoxide-containing peracetate oxidant solution” (Clean Chemistry, Inc., priority 2014, dated 2023).

Assay: Jar test water parameters (hardness, calcium, magnesium, chloride, sodium, aluminum, iron, TSS, turbidity)
Conditions: for total iron: Piceance water, untreated 35 mg/L; for Aluminum (mg/L, total): untreated 2.1; for Iron (mg/L, total) / Iron (mg/L, total), oxidant only: untreated 76; for TSS / TSS (mg/L), oxidant only: untreated 264; for Sodium: untreated 7000; for Chloride (mg/L): untreated 12,700; for turbidity (in TSS line): untreated TSS 264 mg/L; for Iron (mg/L, total), after polymer / TSS (mg/L), after polymer / Iron (mg/L, total), oxidant only / TSS (mg/L), oxidant only: Example 18; for Iron (mg/L, total), after polymer / TSS (mg/L), after polymer: 0.30 mmol/L oxidant then 0.5 mg/L Polymer B-40; for Iron (mg/L, total), oxidant only / TSS (mg/L), oxidant only: 0.30 mmol/L oxidant
[1] = produced water, Example 17, 29 mg/L
[2] = produced water, Example 17, 29 mg/L plus 5 mg/L Polymer B-40
[3] = produced water, Example 17, 29 mg/L plus 5 mg/L floc aid
[4] = produced water, Example 17, 52 mg/L
[5] = produced water, Example 17, 52 mg/L, listed as Sodium Peracetate Oxidant

CC(=O)O[O-].[Na+] [sodium peracetate oxidant, sodium peracetate]
dissolved iron (Denver-Julesburg oil-water sample, 40 mg/L oxidant (as PAA), untreated 57 mg/L): about 47 mg/L | total iron (80 mg/L oxidant (as PAA) with anionic polymer): about 18 mg/L | total iron (100 mg/L oxidant (as PAA) with anionic polymer): about 8 mg/L | Aluminum concentration reduction [1]: about 40% | sodium concentration reduction [1]: about 30% | Aluminum concentration reduction [2]: about 95% | Calcium concentration decrease [2]: about 13% | sodium concentration reduction [2]: about 35% | Aluminum (mg/L, total) [3]: 0.1 mg/L | Iron (mg/L, total) [3]: about 1.7 mg/L | Iron (mg/L, total) (produced water, Example 17, 29 mg/L plus 5 mg/L floc aid, listed as Sodium Peracetate Oxidant): 1.7 mg/L | TSS [3]: 27 mg/L | Sodium [3]: 4560 mg/L | Chloride (mg/L) [3]: 12,900 mg/L | Aluminum (mg/L, total) [1]: 1.2 mg/L | Iron (mg/L, total) [1]: 16 mg/L | TSS [1]: 194 mg/L | Sodium [1]: 4760 mg/L | Chloride (mg/L) [1]: 12,500 mg/L | Iron (mg/L, total) [4]: about 1 mg/L | Iron (mg/L, total) [5]: 1 mg/L | turbidity (in TSS line) [4]: 24 FAU | turbidity (in TSS line) [5]: (24 FAU, | Iron (mg/L, total), after polymer (produced water): 2.4 mg/L | TSS (mg/L), after polymer (produced water): 32 mg/L | Iron (mg/L, total), oxidant only (produced water): 16 mg/L | TSS (mg/L), oxidant only (produced water): 194 mg/L

[O][Cl+][O-] [chlorine dioxide, reference compound]
Iron (mg/L, total), after polymer (produced water): 5.8 mg/L | TSS (mg/L), after polymer (produced water): 97 mg/L | Iron (mg/L, total), oxidant only (produced water): 64 mg/L | TSS (mg/L), oxidant only (produced water): 756 mg/L
